The results in this text go back to paper PMC9582194, “The effect of helix-inducing constraints and downsizing upon a transcription block survival-derived functional cJun antagonist” (Cell Reports. Physical Science, 2022).

The chains behind the UniProt entries cited, without tags or fusion partners. Residues count along the entry.
UniProt P05412, residues 252-315: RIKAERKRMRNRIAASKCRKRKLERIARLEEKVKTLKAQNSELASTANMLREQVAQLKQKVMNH

The experiment addresses cJun (60 amino acid construct encompassing the entire bZIP domain) (UniProt P05412). Put plainly: CD thermal denaturation; peptide (5 μM) with cJun (5 μM); ellipticity at 222 nm, 1°C to 90°C; 20 mM potassium phosphate, 150 mM potassium fluoride, 2 mM TCEP, pH 7.4; two-state fit gives the Tm of the peptide-cJun heterodimer; duplicate experiments; both purified.

These are yes or no findings as the source states them, for the method shown.

Consider MASLEQRAEELARENEELEKEAEELVVE (C-terminal amide (-NH2)) [HW7], for which the binding entry is reported as “no binding”.
